Experiment in all cases: EMSA
The target of one data set is T1, HELQ (human) (UniProt Q8TDG4).
T1 sequence (looked up, limits assumed): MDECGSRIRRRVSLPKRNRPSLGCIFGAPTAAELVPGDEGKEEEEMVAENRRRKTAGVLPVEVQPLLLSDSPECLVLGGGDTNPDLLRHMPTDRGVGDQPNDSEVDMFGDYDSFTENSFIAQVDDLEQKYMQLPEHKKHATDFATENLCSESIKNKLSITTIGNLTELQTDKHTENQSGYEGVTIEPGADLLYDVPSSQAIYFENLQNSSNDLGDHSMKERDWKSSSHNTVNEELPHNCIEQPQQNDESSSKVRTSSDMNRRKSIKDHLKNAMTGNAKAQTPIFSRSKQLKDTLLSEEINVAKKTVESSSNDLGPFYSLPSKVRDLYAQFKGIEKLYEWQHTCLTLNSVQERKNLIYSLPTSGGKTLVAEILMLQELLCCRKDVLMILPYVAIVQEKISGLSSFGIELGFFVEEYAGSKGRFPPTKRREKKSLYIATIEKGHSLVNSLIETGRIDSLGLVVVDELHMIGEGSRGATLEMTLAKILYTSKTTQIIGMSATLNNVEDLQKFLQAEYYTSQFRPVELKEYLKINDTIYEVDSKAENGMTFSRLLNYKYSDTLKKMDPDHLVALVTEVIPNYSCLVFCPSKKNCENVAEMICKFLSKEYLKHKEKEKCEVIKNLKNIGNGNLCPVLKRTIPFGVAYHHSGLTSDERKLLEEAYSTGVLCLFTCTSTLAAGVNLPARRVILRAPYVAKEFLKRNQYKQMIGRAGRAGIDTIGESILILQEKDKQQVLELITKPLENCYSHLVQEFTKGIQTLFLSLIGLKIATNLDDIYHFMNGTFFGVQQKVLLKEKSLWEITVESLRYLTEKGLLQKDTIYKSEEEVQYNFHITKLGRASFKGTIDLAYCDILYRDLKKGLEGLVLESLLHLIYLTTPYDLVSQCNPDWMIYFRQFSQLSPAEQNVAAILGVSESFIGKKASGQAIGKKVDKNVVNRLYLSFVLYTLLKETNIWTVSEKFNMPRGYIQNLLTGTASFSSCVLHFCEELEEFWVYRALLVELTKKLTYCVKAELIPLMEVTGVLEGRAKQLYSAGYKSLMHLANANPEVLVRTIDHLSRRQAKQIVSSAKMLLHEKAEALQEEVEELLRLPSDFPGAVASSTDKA
The conditions noted are these: no RPA; EMSA buffer; M13 agarose gel shifts without ATP; recombinant protein; label: Cy5 at RNA 3' end; DNA:RNA hybrid. A general note: In EMSA bound probe runs differently from free probe, usually more slowly.

The test system of another data set is HELQ + RPA trimer. The conditions noted are these: HELQ plus RPA; EMSA buffer; M13 agarose gel shifts without ATP; recombinant protein; label: Cy5 at RNA 3' end; DNA:RNA hybrid.
The next data set relates to RPA trimer. The conditions noted are these: EMSA buffer; M13 agarose gel shifts without ATP; recombinant protein; label: Cy5 at RNA 3' end; DNA:RNA hybrid.

For at least one entry, the source does not settle the construct or the ends of the probe. For part of these data: Negatives hold for the conditions tested. For part of these data: Tags and fusion partners may be left off the protein sequences shown.

Take “GGGTGAACCTGCAGGTGGGCGGCTGCTCATCGTAGGTTAGTTGGTAGAATTCGGCAGCGTC / GACGCTGCCGAATTCTACCAGTGCCTTGCTAGGACATCTTTGCCCACCTGCAGGTTCACCC / AAAGAUGUCCUAGCAAGGCAC [small synthetic R-loop (RL)]”: the binding result is “no binding” in the data set with HELQ (human), “binds” in the data set on HELQ + RPA trimer and “binds” in the data set with RPA trimer.

Source of the values: article PMC11835494.
